Assay [1] concerns the target C-terminal HA-tagged human WNT3A (WNT3A-HA; pCXN2.1-WNT3A-HA) (human) (UniProt P56704). The experiment in a line: co-precipitation (FIG. 18).
The target is the same in assay [2]. Briefly: co-immunoprecipitation in HEK293T cells.
In assay [3] the target is C-terminal Flag-tagged human SWAMP (SWAMP-Flag; pCXN2.1-Wt-SWAMP-Flag) (human) (UniProt Q8J025). Briefly: co-immunoprecipitation in HEK293T cells.
Assay [4] deals with C-terminal HA-tagged wild-type human APCDD1 (SWAMP-HA; pCXN2.1-Wt-SWAMP-HA) (human) (UniProt Q8J025). The experiment in a line: co-immunoprecipitation in HEK293T cells.
The target is the same in assay [5]. Briefly: western blot and co-immunoprecipitation of SWAMP expressed in HEK293T cells. (In general: In western blotting, separated proteins are transferred to a membrane and probed.)

Sequences of proteins named here, by UniProt entry; tags and fusion partners are left off. A change or cut given only in a name is not applied to a line headed by its entry. Residues count along the entry.
UniProt P56704, residues 19-352: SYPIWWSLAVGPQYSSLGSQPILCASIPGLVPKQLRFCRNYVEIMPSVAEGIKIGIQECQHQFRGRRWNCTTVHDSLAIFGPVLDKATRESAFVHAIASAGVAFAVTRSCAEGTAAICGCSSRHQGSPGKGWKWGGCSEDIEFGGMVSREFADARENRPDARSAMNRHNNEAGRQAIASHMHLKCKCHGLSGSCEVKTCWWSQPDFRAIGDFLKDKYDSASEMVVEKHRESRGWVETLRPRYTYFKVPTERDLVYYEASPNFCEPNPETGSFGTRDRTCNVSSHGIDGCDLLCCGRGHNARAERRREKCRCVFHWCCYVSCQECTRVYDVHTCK
UniProt Q8J025: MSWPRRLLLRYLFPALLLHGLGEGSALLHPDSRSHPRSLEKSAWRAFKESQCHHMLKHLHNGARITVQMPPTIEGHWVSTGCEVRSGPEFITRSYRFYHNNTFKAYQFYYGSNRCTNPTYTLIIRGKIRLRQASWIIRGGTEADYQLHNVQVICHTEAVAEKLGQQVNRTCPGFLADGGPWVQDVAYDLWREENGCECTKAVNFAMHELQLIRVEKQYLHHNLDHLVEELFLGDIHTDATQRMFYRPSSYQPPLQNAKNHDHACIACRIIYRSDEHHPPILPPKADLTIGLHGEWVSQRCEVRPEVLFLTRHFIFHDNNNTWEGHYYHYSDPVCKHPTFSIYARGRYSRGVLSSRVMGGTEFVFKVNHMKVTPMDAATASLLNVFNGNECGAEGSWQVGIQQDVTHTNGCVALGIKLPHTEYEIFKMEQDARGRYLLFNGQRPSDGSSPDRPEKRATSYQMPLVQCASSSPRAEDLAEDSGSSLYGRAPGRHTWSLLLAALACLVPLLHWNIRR

For three substances, binding results are on record in patent US20120003244A1.

Results are given in words; binding and its absence hold for the method and conditions named. In cells and extracts the contact can be indirect. Some binding calls cover weakened binding; strength is not graded here.

In the case of “Flag-tagged extracellular domain of SWAMP protein (SWAMP-ΔTM-Flag; pCXN2.1-SWAMP-ΔTM-Flag) (from UniProt Q8J025 27-486) (receptor)”, the binding result in assay [1] and in assay [2] was “binds” throughout.

For “C-terminal HA-tagged wild-type human APCDD1 (SWAMP-HA; pCXN2.1-Wt-SWAMP-HA) (from UniProt Q8J025 27-514) (receptor)”, in assay [3], the binding result is “binds”.

As for “C-terminal Flag-tagged human SWAMP (SWAMP-Flag; pCXN2.1-Wt-SWAMP-Flag) (from UniProt Q8J025 27-514) (receptor)”, the binding entry in assay [4] and in assay [5] was “binds” in each case.
